Data reported in PMC12906820.
No constants are given. Whether binding was seen depends on the method and setting. Binding calls can cover weak binding; strength is not graded here. Where a sequence is shown, tags or fusion partners need not be part of it. For some of these results: Binding seen in cells or lysates may run through a third protein. One block for each substance: values may come before it.

Assays:
[1] = biological target: T1, CrBIS2–cYFP (Catharanthus roseus); assay: split reporter; BiFC with split YFP in N. benthamiana leaves after Agrobacterium infiltration; confocal laser microscopy
T1 sequence: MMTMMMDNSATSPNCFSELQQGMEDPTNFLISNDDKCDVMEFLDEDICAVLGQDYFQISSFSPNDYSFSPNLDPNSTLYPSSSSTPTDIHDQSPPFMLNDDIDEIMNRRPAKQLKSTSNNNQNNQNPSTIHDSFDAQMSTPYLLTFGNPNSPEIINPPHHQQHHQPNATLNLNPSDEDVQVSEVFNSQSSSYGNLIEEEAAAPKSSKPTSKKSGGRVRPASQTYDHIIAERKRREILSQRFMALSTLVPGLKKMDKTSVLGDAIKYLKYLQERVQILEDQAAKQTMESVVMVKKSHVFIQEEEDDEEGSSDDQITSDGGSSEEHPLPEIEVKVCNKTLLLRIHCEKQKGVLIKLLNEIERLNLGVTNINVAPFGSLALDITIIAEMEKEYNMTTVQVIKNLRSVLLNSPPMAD

[2] = biological target: T2, BIS2 fused to the GAL4 DNA-binding domain (BD) (Catharanthus roseus); assay: two-hybrid; Matchmaker GAL4 system, yeast AH109; BIS2 in pGBKT7 as bait, CrEIL1 in pGADT7 as prey; selective media SD/Leu-/Trp-/His-, SD/Leu-/Trp-/His-/Ade- and with 3-AT; 3 days at 30°C
T2 sequence: T1 sequence

[3] = biological target: T3, GST-BIS2 protein (Catharanthus roseus); assay: pull-down; in vitro, recombinant proteins from E. coli; CrEIL1-His pulled down with BIS2-GST, Western blot with anti-His antibody
T3 sequence: T1 sequence

[4] = biological target: T4, BIS2-GFP (Catharanthus roseus); assay: co-IP; total protein extracts of N. benthamiana leaves co-infiltrated with BIS2-GFP and CrEIL1-FLAG; Protein G Sepharose, 4°C; blots with anti-GFP and anti-Flag (methods: anti-GFP for the precipitation; legend: anti-FLAG)
T4 sequence: T1 sequence

binding [1]: binds
Substance: nYFP–CrEIL1 (Catharanthus roseus)

binding [2]: binds
Substance: CrEIL1 fused to the GAL4 DNA-activation domain (AD) (Catharanthus roseus)

binding [3]: binds
Substance: His-CrEIL1 protein (Catharanthus roseus)

binding [4]: binds
Substance: CrEIL1-FLAG (Catharanthus roseus)
